These are yes or no findings as the source states them, for the method shown. Binding seen in cells or lysates may run through a third protein. Some results given as binding are weak or reduced against the parent protein; the word gives no strength. Where a sequence is shown, tags or fusion partners need not be part of it.
Molecular target: Twist1 (human (endogenous in HEK293T)) (UniProt Q15672)
Test: co-IP; HEK293T cells transfected with Flag-USP4 plasmid for 36 h, treated with 20 uM MG132 for 6 h before co-IP; which protein was precipitated is not told

Sequences of proteins named here, by UniProt entry; tags and fusion partners are left off.
UniProt Q15672: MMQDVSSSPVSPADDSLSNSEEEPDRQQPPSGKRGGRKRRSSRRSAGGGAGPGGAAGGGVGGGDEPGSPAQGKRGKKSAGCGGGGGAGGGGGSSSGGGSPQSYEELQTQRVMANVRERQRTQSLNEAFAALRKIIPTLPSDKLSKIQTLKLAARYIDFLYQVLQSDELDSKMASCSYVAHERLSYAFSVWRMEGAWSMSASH

- binding: binds
B1: Flag-USP4 (enzyme, UniProt Q13107 1-963)
chain: MAEGGGCRERPDAETQKSELGPLMRTTLQRGAQWYLIDSRWFKQWKKYVGFDSWDMYNVGEHNLFPGPIDNSGLFSDPESQTLKEHLIDELDYVLVPTEAWNKLLNWYGCVEGQQPIVRKVVEHGLFVKHCKVEVYLLELKLCENSDPTNVLSCHFSKADTIATIEKEMRKLFNIPAERETRLWNKYMSNTYEQLSKLDNTVQDAGLYQGQVLVIEPQNEDGTWPRQTLQSKSSTAPSRNFTTSPKSSASPYSSVSASLIANGDSTSTCGMHSSGVSRGGSGFSASYNCQEPPSSHIQPGLCGLGNLGNTCFMNSALQCLSNTAPLTDYFLKDEYEAEINRDNPLGMKGEIAEAYAELIKQMWSGRDAHVAPRMFKTQVGRFAPQFSGYQQQDSQELLAFLLDGLHEDLNRVKKKPYLELKDANGRPDAVVAKEAWENHRLRNDSVIVDTFHGLFKSTLVCPECAKVSVTFDPFCYLTLPLPLKKDRVMEVFLVPADPHCRPTQYRVTVPLMGAVSDLCEALSRLSGIAAENMVVADVYNHRFHKIFQMDEGLNHIMPRDDIFVYEVCSTSVDGSECVTLPVYFRERKSRPSSTSSASALYGQPLLLSVPKHKLTLESLYQAVCDRISRYVKQPLPDEFGSSPLEPGACNGSRNSCEGEDEEEMEHQEEGKEQLSETEGSGEDEPGNDPSETTQKKIKGQPCPKRLFTFSLVNSYGTADINSLAADGKLLKLNSRSTLAMDWDSETRRLYYDEQESEAYEKHVSMLQPQKKKKTTVALRDCIELFTTMETLGEHDPWYCPNCKKHQQATKKFDLWSLPKILVVHLKRFSYNRYWRDKLDTVVEFPIRGLNMSEFVCNLSARPYVYDLIAVSNHYGAMGVGHYTAYAKNKLNGKWYYFDDSNVSLASEDQIVTKAAYVLFYQRRDDEFYKTPSLSSSGSSDGGTRPSSSQQGFGDDEACSMDTN

— publication PMC7352958
